PMC10602526
These are yes or no findings as the source states them, for the method shown. In cells and extracts the contact can be indirect. These calls come from enrichment with a bait or labelling near it, and not all partners need be listed.

Tests used:
[1] = target: SEC23B, FLAG-tagged, expressed in HEK293T cells, Q15437; experiment: affinity purification with mass spectrometry; SEC23B-associated proteins in the presence or absence of OTUD1; FLAG-SEC23B transfected in HEK293T with or without GFP-OTUD1, enriched on anti-FLAG M2 beads, silver-stained gel, mass spectrometry (Figure 6a, S9C); conditions: remark: other sources report otherwise
[2] = target: SEC23B, FLAG-tagged, expressed in HEK293T cells (UniProt Q15437); experiment: as above

Row | binding [1] | binding [2] | Binder
1 | binds |  | SEC13 found with SEC23B by mass spectrometry, P55735 1-322 (protein) MVSVINTVDTSHEDMIHDAQMDYYGTRLATCSSDRSVKIFDVRNGGQILIADLRGHEGPVWQVAWAHPMYGNILASCSYDRKVIIWREENGTWEKSHEHAGHDSSVNSVCWAPHDYGLILACGSSDGAISLLTYTGEGQWEVKKINNAHTIGCNAVSWAPAVVPGSLIDHPSGQKPNYIKRFASGGCDNLIKLWKEEEDGQWKEEQKLEAHSDWVRDVAWAPSIGLPTSTIASCSQDGRVFIWTCDDASSNTWSPKLLHKFNDVVWHVSWSITANILAVSGGDNKVTLWKESVDGQWVCISDVNKGQGSVSASVTEGQQNEQ
2 |  | binds | SEC31A found with SEC23B by mass spectrometry (protein, UniProt O94979 1-1220) MKLKEVDRTAMQAWSPAQNHPIYLATGTSAQQLDATFSTNASLEIFELDLSDPSLDMKSCATFSSSHRYHKLIWGPYKMDSKGDVSGVLIAGGENGNIILYDPSKIIAGDKEVVIAQNDKHTGPVRALDVNIFQTNLVASGANESEIYIWDLNNFATPMTPGAKTQPPEDISCIAWNRQVQHILASASPSGRATVWDLRKNEPIIKVSDHSNRMHCSGLAWHPDVATQMVLASEDDRLPVIQMWDLRFASSPLRVLENHARGILAIAWSMADPELLLSCGKDAKILCSNPNTGEVLYELPTNTQWCFDIQWCPRNPAVLSAASFDGRISVYSIMGGSTDGLRQKQVDKLSSSFGNLDPFGTGQPLPPLQIPQQTAQHSIVLPLKKPPKWIRRPVGASFSFGGKLVTFENVRMPSHQGAEQQQQQHHVFISQVVTEKEFLSRSDQLQQAVQSQGFINYCQKKIDASQTEFEKNVWSFLKVNFEDDSRGKYLELLGYRKEDLGKKIALALNKVDGANVALKDSDQVAQSDGEESPAAEEQLLGEHIKEEKEESEFLPSSGGTFNISVSGDIDGLITQALLTGNFESAVDLCLHDNRMADAIILAIAGGQELLARTQKKYFAKSQSKITRLITAVVMKNWKEIVESCDLKNWREALAAVLTYAKPDEFSALCDLLGTRLENEGDSLLQTQACLCYICAGNVEKLVACWTKAQDGSHPLSLQDLIEKVVILRKAVQLTQAMDTSTVGVLLAAKMSQYANLLAAQGSIAAALAFLPDNTNQPNIMQLRDRLCRAQGEPVAGHESPKIPYEKQQLPKGRPGPVAGHHQMPRVQTQQYYPHGENPPPPGFIMHGNVNPNAAGQLPTSPGHMHTQVPPYPQPQPYQPAQPYPFGTGGSAMYRPQQPVAPPTSNAYPNTPYISSASSYTGQSQLYAAQHQASSPTSSPATSFPPPPSSGASFQHGGPGAPPSSSAYALPPGTTGTLPAASELPASQRTGPQNGWNDPPALNRVPKKKKMPENFMPPVPITSPIMNPLGDPQSQMLQQQPSAPVPLSSQSSFPQPHLPGGQPFHGVQQPLGQTGMPPSFSKPNIEGAPGAPIGNTFQHVQSLPTKKITKKPIPDEHLILKTTFEDLIQRCLSSATDPQTKRKLDDASKRLEFLYDKLREQTLSPTITSGLHNIARSIETRNYSEGLTMHTHIVSTSNFSETSAFMPVLKVVLTQANKLGV
3 |  | binds | SEC24A found with SEC23B by mass spectrometry (protein, UniProt O95486 1-1093) MSQPGIPASGGAPASLQAQNGAALASGSPYTNGPVQNALLSSQESVSQGYNFQLPGSYPHPIPAKTLNPVSGQSNYGGSQGSGQTLNRPPVASNPVTPSLHSGPAPRMPLPASQNPATTPMPSSSFLPEANLPPPLNWQYNYPSTASQTNHCPRASSQPTVSGNTSLTTNHQYVSSGYPSLQNSFIKSGPSVPPLVNPPLPTTFQPGAPHGPPPAGGPPPVRALTPLTSSYRDVPQPLFNSAVNQEGITSNTNNGSMVVHSSYDEIEGGGLLATPQLTNKNPKMSRSVGYSYPSLPPGYQNTTPPGATGVPPSSLNYPSGPQAFTQTPLGANHLTTSMSGLSLQPEGLRVVNLLQERNMLPSTPLKPPVPNLHEDIQKLNCNPELFRCTLTSIPQTQALLNKAKLPLGLLLHPFKDLVQLPVVTSSTIVRCRSCRTYINPFVSFLDQRRWKCNLCYRVNDVPEEFLYNPLTRVYGEPHRRPEVQNATIEFMAPSEYMLRPPQPPVYLFVFDVSHNAVETGYLNSVCQSLLDNLDLLPGNTRTKIGFITFDSTIHFYGLQESLSQPQMLIVSDIEDVFIPMPENLLVNLNESKELVQDLLKTLPQMFTKTLETQSALGPALQAAFKLMSPTGGRMSVFQTQLPTLGVGALKPREEPNHRSSAKDIHMTPSTDFYKKLALDCSGQQVAVDLFLLSGQYSDLASLGCISRYSAGSVYYYPSYHHQHNPVQVQKLQKELQRYLTRKIGFEAVMRIRCTKGLSIHTFHGNFFVRSTDLLSLPNVNPDAGYAVQMSVEESLTDTQLVSFQSALLYTSSKGERRIRVHTLCLPVVSTLNDVFLGADVQAISGLLANMAVDRSMTASLSDARDALVNAVIDSLSAYRSSVLSNQQPGLMVPFSLRLFPLFVLALLKQKSFQTGTNARLDERIFAMCQVKNQPLVYLMLTTHPSLYRVDNLSDEGALNISDRTIPQPPILQLSVEKLSRDGAFLMDAGSVLMLWVGKNCTQNFLSQVLGVQNYASIPQPMTDLPELDTPESARIIAFISWLREQRPFFPILYVIRDESPMKANFLQNMIEDRTESALSYYEFLLHIQQQVNK
